Data taken from article PMC5707103.

Amino acid sequences for entries named in this document (tags omitted). A change or cut given only in a name is not applied to a line headed by its entry.
UniProt P03126: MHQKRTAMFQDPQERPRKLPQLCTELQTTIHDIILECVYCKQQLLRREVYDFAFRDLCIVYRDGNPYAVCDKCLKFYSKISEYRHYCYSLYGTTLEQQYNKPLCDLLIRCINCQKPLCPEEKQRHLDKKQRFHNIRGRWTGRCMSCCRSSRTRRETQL
UniProt P01106: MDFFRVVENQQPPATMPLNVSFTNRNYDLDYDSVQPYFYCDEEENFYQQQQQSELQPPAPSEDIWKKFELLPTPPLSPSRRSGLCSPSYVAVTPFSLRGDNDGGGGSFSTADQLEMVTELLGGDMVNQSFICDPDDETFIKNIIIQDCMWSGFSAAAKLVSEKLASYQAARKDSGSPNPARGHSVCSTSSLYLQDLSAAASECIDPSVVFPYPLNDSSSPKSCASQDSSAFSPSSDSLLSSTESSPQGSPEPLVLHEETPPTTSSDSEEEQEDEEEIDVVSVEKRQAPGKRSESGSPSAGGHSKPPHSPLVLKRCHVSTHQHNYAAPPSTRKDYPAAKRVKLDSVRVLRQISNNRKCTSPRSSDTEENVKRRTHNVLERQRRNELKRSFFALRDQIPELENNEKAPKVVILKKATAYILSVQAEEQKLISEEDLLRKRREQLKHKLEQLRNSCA

Molecular target: GST-E6 fusion protein (GST-16E6) (human papillomavirus type 16 (HPV16)) (UniProt P03126)
Assay: pull-down; GST or GST-E6 fusion on Glutathione-Agarose beads; in vitro translated wt Myc or full-length based deletion mutants; blot with monoclonal Myc antibody 9E10; only the target purified

Substance	binding
MycΔMBII (from UniProt P01106)	binds
MycΔ370-409 (MycΔHLH) (from UniProt P01106)	binds
MycΔMBI (from UniProt P01106)	binds
MycΔMBI+II (from UniProt P01106)	binds
MycΔMBI+ΔHLH (from UniProt P01106)	binds
MycΔMBII+ΔHLH (from UniProt P01106)	binds

Results are given in words; binding and its absence hold for the method and conditions named. In cells and extracts the contact can be indirect. Binding calls can cover weak binding; strength is not graded here.
